Experiment [1] has as its target T1, IGFBP7 (recombinant; preparation not specified) (UniProt Q16270).
T1 sequence (looked up): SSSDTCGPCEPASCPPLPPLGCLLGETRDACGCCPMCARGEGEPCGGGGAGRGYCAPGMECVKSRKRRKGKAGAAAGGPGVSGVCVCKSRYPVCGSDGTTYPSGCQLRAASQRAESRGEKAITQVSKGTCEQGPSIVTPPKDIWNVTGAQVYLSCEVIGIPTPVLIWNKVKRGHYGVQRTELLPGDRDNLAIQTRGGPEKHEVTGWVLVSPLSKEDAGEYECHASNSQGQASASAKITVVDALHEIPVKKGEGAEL
The experiment is described as follows: SPR (BiaCore), IGFBP7 immobilized, sdAb at 0.5-4.5 µM. In general terms: Surface plasmon resonance follows binding to a sensor surface in real time, without labels.

Experiment [2] deals with T2, recombinant protein IGFBP7 from R&D (UniProt Q16270 27-282).
T2 construct: Bought protein immobilized on the Biacore chip; also called recombinant IGFBP7
T2 sequence (looked up): T1 sequence (looked up)
Nature of the experiment: SPR (BiaCore), IGFBP7 immobilized, sdAb at 25-200 nM.

For experiment [3], the target named is T3, recombinant custom-synthesized IGFBP7 (UniProt Q16270 27-282).
T3 construct: also called custom-synthesized recombinant IGFBP7
T3 sequence (looked up): T1 sequence (looked up)
The experiment is described as above.

Residue numbers refer to the chain shown, from its start. Results are given in words; binding and its absence hold for the method and conditions named. Some binding calls cover weakened binding; strength is not graded here.

B1: sdAb clone 4.6-IGFBP7 (VHH)
VHH: QVKLEESGGGSVQPGGSLRLSCAASGRTFSRLAMGWFRQAPGKERELVAGISRSGDGTHYAYSVKGRFTISRDNAANTVELQMNSLKPEDTAVYFCAAARTAFYYYGNDYNYWGQGTQVTVSS
notes: also called IGFBP7-4.6; not shown: c-Myc detection tag and 5xHis purification tag added at the C-terminus by vector pSJF2
As for B1, the binding result in experiment [1] is reported as “binds”.

B2: sdAb clone 4.43-IGFBP7 (VHH)
VHH: B1 VHH with S11L, P14A, F29S, S30R, L32Y, L47F
notes: not shown: c-Myc detection tag and 5xHis purification tag added at the C-terminus by vector pSJF2
B2: the binding result in experiment [2] and in experiment [3] was “binds” in each case.

Values taken from patent US20120045391A1 (NATIONAL RESEARCH COUNCIL CANADA, published 2012).
